# About 7,500 (2.1%) of roughly 360,000 compounds were called active. The shares of active, inactive and inconclusive entries below differ from those in the screen. Calls come from the whole dose curve; as a rule, active = well fitted inhibition curve with a large enough effect; inconclusive = small, poorly fitted or top-dose-only effect, or effect the other way; inactive = flat fitted curve, though single readings scatter. A potency beside an inconclusive call is a rough fit, not a confirmed value.
# Experiment: Nrf2 qHTS screen for inhibitors; note: nearly all actives have a fitted effect of over 60% in size
# Details: A549 ARE-Fluc reporter, luciferase luminescence, 18-24 h; series mostly up to 46 µM
# Method in brief: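 In this cell-based qHTS, ARE-driven firefly luciferase in A549 cells reports Nrf2 activity; the luminescent signal after BugLite lysis is the measured value, with a prior CellTiter-Fluor read for cell health.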
# Potency is the fitted concentration of half-maximal effect.
row,Compound,Potency
1,COc1ccc2c(ccc[n+]2CC(=O)c2ccc(C)cc2)c1,"inconclusive: 16.4 µM [falling, partial curve]"
2,NNc1nc2ccccc2nc1C(F)(F)F,"inconclusive: 7.31 µM [falling, partial curve, poor fit]"
3,O=C(c1cc(C2CC2)nn1-c1ccccc1)N1CCN(c2ccccn2)CC1,"inconclusive: 13 µM [falling, partial curve, poor fit]"
4,CCN(CC)CCCNC(=O)c1cn(CC)c2cc(N3CCN(C(=O)c4ccco4)CC3)c(F)cc2c1=O,inactive
5,Fc1ccc2cnc(-c3ccccc3F)cc2c1,"inconclusive: 9.2 µM [activator, partial curve, poor fit]"
6,CC(=O)N/N=C(/C)c1ccc(NC(=O)c2csc(C)c2C)cc1,"inconclusive: 6.51 µM [activator, partial curve]"
7,CCc1ccc(N2CCn3c2nc2c3c(=O)n(Cc3c(F)cccc3Cl)c(=O)n2C)cc1,active: 23.1 µM
8,CCCCOc1ccc(/C=C2/Sc3ccccc3C2=O)cc1,"inconclusive: 14.6 µM [activator, partial curve, poor fit]"
9,CCOC(=O)/C(=N/Nc1ccccc1)c1csc(Nc2ccccc2)n1,"inconclusive: 23.1 µM [falling, single point]"
10,CCC1(c2ccc(F)cc2)NC(=O)N(CC(=O)Nc2ccc(C)c(S(=O)(=O)N3CCOCC3)c2)C1=O (stereo not given),"inconclusive: 11.6 µM [falling, partial curve]"
11,O=C(Nc1ccc2c(c1)OCO2)C(=O)c1c[nH]c2ccccc12,"inconclusive: 2.31 µM [activator, full curve]"
12,CC(C)Cn1c(SCC(=O)Nc2ccc3[nH]c(=O)[nH]c3c2)nc2ccccc2c1=O,"inconclusive: 25.9 µM [falling, partial curve]"
13,Nc1nc(NCc2ccco2)nc(N2CCCCCC2)c1[N+](=O)[O-],"inconclusive: 20.6 µM [falling, single point]"
14,CCOC(=O)C1CCN(C(=O)Cn2nc(C)n3c(cc4cc(C)ccc43)c2=O)CC1,"inconclusive: 20.6 µM [activator, single point]"
15,Cc1cc2nc(-c3ccc(Br)cc3)cc(C(F)(F)F)n2n1,inactive
16,O=C(c1ccccc1)c1cnc(-c2ccccc2)s1,"inconclusive: 2.06 µM [activator, partial curve]"
17,CC[n+]1c(/C=C2\C=C(C)CC(C)(C)C2)sc2ccccc21,active: 16.4 µM
18,Cc1c(CNCCc2ccc(S(N)(=O)=O)cc2)c(C(=O)O)c(C)n1Cc1ccc(Cl)cc1,inactive
19,CCCSc1nc(SCC(=O)NCc2ccccc2)c2c3c(sc2n1)COC(C)(CC)C3 (stereo not given),"inconclusive: 2.06 µM [falling, partial curve, poor fit]"
20,COCCN(C(=O)COC(=O)C1CCC(C(C)(C)C)CC1)c1c(N)n(Cc2ccccc2)c(=O)[nH]c1=O (stereo not given),"inconclusive: 20.6 µM [falling, single point]"
21,CCCCC(=O)Nc1nnc(S(=O)(=O)N(CC)c2cc(C)cc(C)c2)s1,"inconclusive: 20.6 µM [falling, partial curve, poor fit]"
22,COc1ccccc1NS(=O)(=O)c1cc(NC(=O)Nc2cccc(C)c2)ccc1N1CCCCC1,inactive

row,Compound,Potency
1,COc1ccc(N(CC(=O)N2CCOCC2)S(C)(=O)=O)cc1,inactive
2,N/C(=N\OC(=O)c1ccco1)c1cccc([N+](=O)[O-])c1,"inconclusive: 23.1 µM [activator, partial curve, poor fit]"
3,Cc1ccsc1-c1nc(CSCC(=O)N2CCN(c3ccccc3)CC2)c(C)o1,"inconclusive: 18.4 µM [falling, single point]"
4,O=C1CC(c2ccc(F)cc2)CC2=C1C(c1ccc([N+](=O)[O-])o1)Nc1ccccc1N2 (stereo not given),"inconclusive: 23.1 µM [activator, single point]"
5,COc1cc(/C=C/C(=O)c2ccc(O)cc2)ccc1OCC#N,active: 25.9 µM
6,COc1ccc2cc(CNCCOCCOCCNCc3ccc4cc(OC)ccc4c3)ccc2c1,inactive
7,COc1ccc(/C=C2\SC(=O)N(CCNC(=O)CN3C(=O)NC4(CCCC4)C3=O)C2=O)cc1,"inconclusive: 14.6 µM [activator, partial curve]"
8,N#Cc1c(NC(=O)c2ccc(Br)o2)n(-c2ccccc2)c2nc3ccccc3nc12,"inconclusive: 10.3 µM [falling, partial curve, poor fit]"
9,c1cncc(CNc2nc(-c3cccnc3)nc3ccccc23)c1,"inconclusive: 3.66 µM [falling, partial curve, poor fit]"
10,O=C(N/N=C/c1cccnc1)c1ccc(NC(=O)c2ccccc2Cl)cc1,"inconclusive: 32.6 µM [falling, single point]"
11,O=C1C2C3C=CC(CNS(=O)(=O)c4ccccc4)(O3)C2C(=O)N1c1ccc(Cl)cc1 (stereo not given),inactive
12,COc1cc(NC(=O)CSc2ncnc3c2cnn3Cc2ccccc2)cc(OC)c1,"inconclusive: 18.4 µM [falling, partial curve, poor fit]"
13,CC1=C(C(=O)OCC2CCCCC2)C(c2ccc(F)cc2)NC(=O)N1 (stereo not given),"inconclusive: 14.6 µM [falling, partial curve]"
14,OCc1cn(-c2ccccc2)nn1,"inconclusive: 23.1 µM [activator, partial curve, poor fit]"
15,Cn1c(=O)c2sccc2n2c(CCC(=O)N3CCN(c4cccc(Cl)c4)CC3)nnc12,inactive
16,COc1ccc(N2CCN(C(=O)c3ccccc3NS(=O)(=O)c3ccc(C)cc3)CC2)cc1,inactive
17,Cc1ccc2[nH]c(O)c(N=NC(=O)C3CC3c3ccccc3)c2c1Br (stereo not given),"inconclusive: 6.51 µM [activator, partial curve, poor fit]"
18,COc1ccc(/C=N/Nc2cc(C)nc(N3CCOCC3)n2)cc1,"inconclusive: 29.1 µM [activator, single point]"
19,C/C(=N\NC(=O)c1ccc(Cl)cc1)c1cccc(NC(=O)C(C)C)c1,"inconclusive: 0.411 µM [activator, full curve, poor fit]"
20,COc1cc(-c2nc(C(=O)NC3CCN(Cc4ccccc4)CC3)cc3c2[nH]c2ccccc23)cc(OC)c1OC,inactive
21,Cc1cccc(-c2c(NC(=O)c3ccco3)oc3c(C)cccc3c2=O)c1,"inconclusive: 32.6 µM [falling, partial curve, poor fit]"
22,Cc1ccc2[nH]c(=O)c(CN(CCc3ccccc3)C(=O)N3CCOCC3)cc2c1,inactive

row,Compound,Potency
1,Cn1ncc2c(Nc3cccc(Cl)c3)nc(Nc3cccc(Cl)c3)nc21,"inconclusive: 0.731 µM [activator, full curve, poor fit]"
2,Cc1ccc(CNC(=O)CN2C(=O)C3(SCC(=O)N3c3cc(C)cc(C)c3)c3ccccc32)cc1 (stereo not given),inactive
3,Cc1ccc(O)c(N=Cc2cccs2)c1,inactive
4,CCC(/C=C1\Sc2ccc(OC)cc2N1CCO)=C\c1sc2ccc(OC)cc2[n+]1CCO,"inconclusive: 29.1 µM [falling, partial curve, poor fit]"
5,Cc1nnc(SCC(=O)Nc2nc3c(s2)CC(C)CC3)s1 (stereo not given),"inconclusive: 16.4 µM [falling, single point]"
6,COc1ccc(-c2cc(C(=O)Nc3ccccc3O)c3ccccc3n2)cc1,"inconclusive: 18.4 µM [falling, single point]"
7,CC(=O)Nc1ccc2nc3c(=O)n(C)c(=O)n(C)c3nc2c1,"inconclusive: 29.1 µM [falling, single point]"
8,COc1cccc(-n2c(CN3CCN(c4ccc(C)cc4)C(C)C3)nc3ccc([N+](=O)[O-])cc3c2=O)c1 (stereo not given),inactive
9,COc1cc([N+](=O)[O-])ccc1NC(=O)COC(=O)c1c[nH]c(=O)[nH]c1=O,inactive
10,O=C(NCC(c1ccco1)N1CCN(c2ccccc2)CC1)c1ccc2c(c1)OCO2 (stereo not given),"inconclusive: 18.4 µM [falling, single point]"
11,COc1ccc(Cc2ccc(OC)c(N)c2)cc1N,"inconclusive: 25.9 µM [activator, single point]"
12,CCN(CCCn1c(=S)[nH]c2ccc(N3CCOCC3)cc2c1=O)c1ccccc1,"inconclusive: 29.1 µM [falling, single point]"
13,CCN1C(c2ccc(F)cc2)=CS/C1=C(\C#N)c1nnc2n1-c1ccccc1SC2,"inconclusive: 25.9 µM [falling, partial curve, poor fit]"
14,COc1cc(NC(=O)Cc2ccc(Cl)cc2)ccc1NC(=O)c1ccco1,"inconclusive: 2.59 µM [falling, full curve, poor fit]"
15,CCC(=O)Nc1cccc(-c2cn3ccccc3n2)c1,inactive
16,Nc1cccc(S(=O)(=O)c2ccc(N)c(N)c2)c1,"inconclusive: 0.164 µM [falling, partial curve, poor fit]"
17,O=C(/C=C/Nc1ccc(F)cc1F)c1ccco1,"inconclusive: 20.6 µM [falling, single point]"
18,NC(=O)CC(NC(=O)c1ccccc1)c1ccc(NCc2ccccc2)c([N+](=O)[O-])c1 (stereo not given),"inconclusive: 23.1 µM [falling, single point]"
19,CCOc1ccccc1OCC(=O)Nc1ccc(OC)c(S(=O)(=O)N2CCCCC2)c1,inactive
20,CCN(CC1CCCO1)C(=O)c1cc(COc2cc(C)c(Cl)c(C)c2)on1 (stereo not given),"inconclusive: 5.8 µM [activator, full curve]"
21,S=c1[nH]nc(C2CC2c2ccc(Cl)cc2)n1-c1ccc(Cl)cc1 (stereo not given),"inconclusive: 25.9 µM [falling, single point]"

# Taken from above:
# In Potency, Cc1ccc(CNC(=O)CN2C(=O)C3(SCC(=O)N3c3cc(C)cc(C)c3)c3ccccc32)cc1 (stereo not given) is entered as inactive
# In Potency, NC(=O)CC(NC(=O)c1ccccc1)c1ccc(NCc2ccccc2)c([N+](=O)[O-])c1 (stereo not given) is entered as inconclusive: 23.1 µM [falling, single point]
# In Potency, O=C(/C=C/Nc1ccc(F)cc1F)c1ccco1 is entered as inconclusive: 20.6 µM [falling, single point]
